Experimental data reported in the supplement of paper PMC10849652.
Some of the results follow.

Amino acid sequences for entries named in this document (tags omitted). A change or cut given only in a name is not applied to a line headed by its entry.
UniProt P11086: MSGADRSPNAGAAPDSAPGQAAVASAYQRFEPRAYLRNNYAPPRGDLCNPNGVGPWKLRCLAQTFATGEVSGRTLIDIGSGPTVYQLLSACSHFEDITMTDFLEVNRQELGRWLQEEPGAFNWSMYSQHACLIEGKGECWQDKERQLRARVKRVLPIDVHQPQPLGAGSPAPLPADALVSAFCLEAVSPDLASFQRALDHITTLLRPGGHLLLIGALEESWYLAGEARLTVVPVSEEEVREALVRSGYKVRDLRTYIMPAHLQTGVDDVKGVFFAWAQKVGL
UniProt Q8WVV4: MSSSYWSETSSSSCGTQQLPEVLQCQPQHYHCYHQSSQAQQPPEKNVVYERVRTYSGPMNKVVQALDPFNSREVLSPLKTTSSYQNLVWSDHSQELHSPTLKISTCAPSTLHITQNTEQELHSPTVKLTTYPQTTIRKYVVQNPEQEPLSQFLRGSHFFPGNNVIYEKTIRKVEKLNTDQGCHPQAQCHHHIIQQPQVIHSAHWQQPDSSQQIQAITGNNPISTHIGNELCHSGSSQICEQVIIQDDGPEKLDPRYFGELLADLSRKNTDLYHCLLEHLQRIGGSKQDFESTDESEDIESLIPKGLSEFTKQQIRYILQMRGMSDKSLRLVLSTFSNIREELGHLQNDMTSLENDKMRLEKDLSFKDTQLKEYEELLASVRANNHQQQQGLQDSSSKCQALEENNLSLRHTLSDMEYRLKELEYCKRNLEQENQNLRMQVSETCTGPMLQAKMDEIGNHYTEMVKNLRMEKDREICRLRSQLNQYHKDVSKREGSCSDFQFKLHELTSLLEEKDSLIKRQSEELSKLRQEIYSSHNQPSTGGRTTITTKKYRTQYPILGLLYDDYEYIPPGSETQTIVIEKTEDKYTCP
UniProt P62937, whole entry, looked up: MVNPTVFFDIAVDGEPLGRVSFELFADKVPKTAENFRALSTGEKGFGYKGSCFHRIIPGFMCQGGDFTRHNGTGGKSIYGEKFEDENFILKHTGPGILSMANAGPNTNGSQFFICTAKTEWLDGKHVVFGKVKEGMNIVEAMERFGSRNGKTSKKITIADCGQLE
UniProt O00469: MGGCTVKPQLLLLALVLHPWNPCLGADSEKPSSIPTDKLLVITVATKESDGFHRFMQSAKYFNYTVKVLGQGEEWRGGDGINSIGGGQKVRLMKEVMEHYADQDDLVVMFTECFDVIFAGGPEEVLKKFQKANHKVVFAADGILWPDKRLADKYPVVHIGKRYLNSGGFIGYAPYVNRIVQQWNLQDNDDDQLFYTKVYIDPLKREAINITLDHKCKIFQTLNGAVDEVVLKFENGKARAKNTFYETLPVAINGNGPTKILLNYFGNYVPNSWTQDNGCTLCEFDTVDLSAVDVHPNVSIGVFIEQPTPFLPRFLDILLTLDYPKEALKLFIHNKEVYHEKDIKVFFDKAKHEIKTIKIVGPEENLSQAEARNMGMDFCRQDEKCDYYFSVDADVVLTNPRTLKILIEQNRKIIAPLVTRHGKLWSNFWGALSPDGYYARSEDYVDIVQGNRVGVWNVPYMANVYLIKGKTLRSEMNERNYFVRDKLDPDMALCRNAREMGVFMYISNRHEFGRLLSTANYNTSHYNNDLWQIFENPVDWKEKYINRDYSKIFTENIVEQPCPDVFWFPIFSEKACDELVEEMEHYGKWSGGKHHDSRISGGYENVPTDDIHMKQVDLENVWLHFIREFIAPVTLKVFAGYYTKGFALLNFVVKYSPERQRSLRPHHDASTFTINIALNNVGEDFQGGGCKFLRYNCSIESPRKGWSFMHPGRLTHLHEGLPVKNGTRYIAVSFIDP
UniProt Q86V59: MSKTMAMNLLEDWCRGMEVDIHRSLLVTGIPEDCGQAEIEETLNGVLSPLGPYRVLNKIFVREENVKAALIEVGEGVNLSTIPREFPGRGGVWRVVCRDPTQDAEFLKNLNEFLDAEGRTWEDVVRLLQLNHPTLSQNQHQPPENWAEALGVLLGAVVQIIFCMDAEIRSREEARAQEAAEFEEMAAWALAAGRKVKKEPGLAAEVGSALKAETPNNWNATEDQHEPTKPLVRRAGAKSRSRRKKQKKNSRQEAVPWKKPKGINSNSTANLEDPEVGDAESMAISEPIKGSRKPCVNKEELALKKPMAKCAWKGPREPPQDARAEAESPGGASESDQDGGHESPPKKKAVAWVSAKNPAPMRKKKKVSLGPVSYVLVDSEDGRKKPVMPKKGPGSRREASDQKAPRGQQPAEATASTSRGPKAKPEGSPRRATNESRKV
UniProt Q9Y4D7: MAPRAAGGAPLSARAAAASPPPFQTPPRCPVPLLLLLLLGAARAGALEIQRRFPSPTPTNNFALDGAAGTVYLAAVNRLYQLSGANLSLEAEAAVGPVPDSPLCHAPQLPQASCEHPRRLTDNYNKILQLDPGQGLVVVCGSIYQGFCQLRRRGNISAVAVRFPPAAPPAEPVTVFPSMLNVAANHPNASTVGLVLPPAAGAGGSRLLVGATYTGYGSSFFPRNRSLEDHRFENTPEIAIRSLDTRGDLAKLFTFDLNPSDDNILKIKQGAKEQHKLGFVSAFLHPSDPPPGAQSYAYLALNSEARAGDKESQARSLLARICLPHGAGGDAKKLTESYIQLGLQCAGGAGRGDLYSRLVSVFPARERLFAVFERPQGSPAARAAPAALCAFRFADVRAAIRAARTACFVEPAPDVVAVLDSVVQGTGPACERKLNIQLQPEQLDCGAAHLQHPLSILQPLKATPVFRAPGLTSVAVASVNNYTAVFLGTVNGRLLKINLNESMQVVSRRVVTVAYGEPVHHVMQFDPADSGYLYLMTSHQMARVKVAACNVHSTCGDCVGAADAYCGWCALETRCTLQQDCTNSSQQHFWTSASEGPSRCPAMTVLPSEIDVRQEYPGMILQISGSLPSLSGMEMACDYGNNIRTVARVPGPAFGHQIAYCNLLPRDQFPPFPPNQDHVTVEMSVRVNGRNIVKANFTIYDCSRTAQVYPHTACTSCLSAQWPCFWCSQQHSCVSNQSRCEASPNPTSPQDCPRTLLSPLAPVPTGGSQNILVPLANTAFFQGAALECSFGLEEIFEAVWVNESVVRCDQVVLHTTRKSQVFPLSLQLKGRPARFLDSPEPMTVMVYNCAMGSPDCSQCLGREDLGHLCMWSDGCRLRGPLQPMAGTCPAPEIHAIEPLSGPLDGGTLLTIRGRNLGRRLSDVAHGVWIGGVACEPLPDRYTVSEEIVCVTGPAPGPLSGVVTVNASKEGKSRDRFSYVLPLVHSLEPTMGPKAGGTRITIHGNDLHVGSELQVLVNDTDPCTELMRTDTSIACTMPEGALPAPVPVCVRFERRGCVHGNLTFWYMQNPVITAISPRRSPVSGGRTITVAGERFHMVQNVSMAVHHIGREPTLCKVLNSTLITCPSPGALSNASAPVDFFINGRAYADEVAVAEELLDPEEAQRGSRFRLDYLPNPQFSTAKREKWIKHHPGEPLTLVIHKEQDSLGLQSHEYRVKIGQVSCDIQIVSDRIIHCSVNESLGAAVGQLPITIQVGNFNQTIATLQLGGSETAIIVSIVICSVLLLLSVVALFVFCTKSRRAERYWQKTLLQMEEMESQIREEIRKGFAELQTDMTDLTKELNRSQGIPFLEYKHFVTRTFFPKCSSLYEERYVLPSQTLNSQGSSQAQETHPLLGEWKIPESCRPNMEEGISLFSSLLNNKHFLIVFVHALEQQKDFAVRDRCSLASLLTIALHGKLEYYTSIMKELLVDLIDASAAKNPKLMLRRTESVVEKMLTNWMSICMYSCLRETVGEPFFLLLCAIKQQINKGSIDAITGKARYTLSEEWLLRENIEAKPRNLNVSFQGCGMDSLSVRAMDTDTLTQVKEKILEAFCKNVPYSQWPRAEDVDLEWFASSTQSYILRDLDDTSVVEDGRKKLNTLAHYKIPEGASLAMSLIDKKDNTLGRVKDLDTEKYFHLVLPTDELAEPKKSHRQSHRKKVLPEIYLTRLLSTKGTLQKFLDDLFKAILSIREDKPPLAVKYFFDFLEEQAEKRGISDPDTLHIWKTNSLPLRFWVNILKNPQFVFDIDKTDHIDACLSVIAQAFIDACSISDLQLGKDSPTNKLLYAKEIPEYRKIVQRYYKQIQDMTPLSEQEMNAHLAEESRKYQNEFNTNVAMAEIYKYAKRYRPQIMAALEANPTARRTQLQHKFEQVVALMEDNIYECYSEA
UniProt Q6EEV4: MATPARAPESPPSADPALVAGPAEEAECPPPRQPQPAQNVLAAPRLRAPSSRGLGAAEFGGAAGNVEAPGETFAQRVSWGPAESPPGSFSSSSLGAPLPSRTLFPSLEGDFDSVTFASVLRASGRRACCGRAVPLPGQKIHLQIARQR
UniProt Q86YN6: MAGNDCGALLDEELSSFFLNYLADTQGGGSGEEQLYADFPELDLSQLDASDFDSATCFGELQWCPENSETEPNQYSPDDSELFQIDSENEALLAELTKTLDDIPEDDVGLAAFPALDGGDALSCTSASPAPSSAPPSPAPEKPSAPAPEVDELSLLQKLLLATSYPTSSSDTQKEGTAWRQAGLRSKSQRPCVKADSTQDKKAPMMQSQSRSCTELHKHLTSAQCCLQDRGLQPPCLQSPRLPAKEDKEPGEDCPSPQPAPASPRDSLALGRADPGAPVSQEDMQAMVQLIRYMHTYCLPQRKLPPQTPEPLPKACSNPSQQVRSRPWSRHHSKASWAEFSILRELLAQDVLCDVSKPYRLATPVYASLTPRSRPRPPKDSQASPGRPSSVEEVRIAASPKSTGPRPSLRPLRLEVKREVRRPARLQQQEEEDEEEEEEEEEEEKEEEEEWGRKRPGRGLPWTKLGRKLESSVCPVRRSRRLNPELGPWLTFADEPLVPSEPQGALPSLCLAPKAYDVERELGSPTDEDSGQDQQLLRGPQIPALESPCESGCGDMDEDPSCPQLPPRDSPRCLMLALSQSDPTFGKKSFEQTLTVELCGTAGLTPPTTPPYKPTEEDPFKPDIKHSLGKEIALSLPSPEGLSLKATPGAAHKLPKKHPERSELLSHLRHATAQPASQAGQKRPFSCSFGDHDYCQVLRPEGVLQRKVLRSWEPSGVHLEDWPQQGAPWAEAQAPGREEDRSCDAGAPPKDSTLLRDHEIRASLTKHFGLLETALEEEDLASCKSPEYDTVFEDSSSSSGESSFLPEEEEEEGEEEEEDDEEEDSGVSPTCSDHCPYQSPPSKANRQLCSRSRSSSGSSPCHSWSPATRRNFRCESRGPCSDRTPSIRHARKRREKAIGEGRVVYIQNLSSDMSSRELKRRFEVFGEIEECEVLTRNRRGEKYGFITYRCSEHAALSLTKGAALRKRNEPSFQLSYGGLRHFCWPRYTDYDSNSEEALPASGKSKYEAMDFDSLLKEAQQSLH
UniProt Q58EX7: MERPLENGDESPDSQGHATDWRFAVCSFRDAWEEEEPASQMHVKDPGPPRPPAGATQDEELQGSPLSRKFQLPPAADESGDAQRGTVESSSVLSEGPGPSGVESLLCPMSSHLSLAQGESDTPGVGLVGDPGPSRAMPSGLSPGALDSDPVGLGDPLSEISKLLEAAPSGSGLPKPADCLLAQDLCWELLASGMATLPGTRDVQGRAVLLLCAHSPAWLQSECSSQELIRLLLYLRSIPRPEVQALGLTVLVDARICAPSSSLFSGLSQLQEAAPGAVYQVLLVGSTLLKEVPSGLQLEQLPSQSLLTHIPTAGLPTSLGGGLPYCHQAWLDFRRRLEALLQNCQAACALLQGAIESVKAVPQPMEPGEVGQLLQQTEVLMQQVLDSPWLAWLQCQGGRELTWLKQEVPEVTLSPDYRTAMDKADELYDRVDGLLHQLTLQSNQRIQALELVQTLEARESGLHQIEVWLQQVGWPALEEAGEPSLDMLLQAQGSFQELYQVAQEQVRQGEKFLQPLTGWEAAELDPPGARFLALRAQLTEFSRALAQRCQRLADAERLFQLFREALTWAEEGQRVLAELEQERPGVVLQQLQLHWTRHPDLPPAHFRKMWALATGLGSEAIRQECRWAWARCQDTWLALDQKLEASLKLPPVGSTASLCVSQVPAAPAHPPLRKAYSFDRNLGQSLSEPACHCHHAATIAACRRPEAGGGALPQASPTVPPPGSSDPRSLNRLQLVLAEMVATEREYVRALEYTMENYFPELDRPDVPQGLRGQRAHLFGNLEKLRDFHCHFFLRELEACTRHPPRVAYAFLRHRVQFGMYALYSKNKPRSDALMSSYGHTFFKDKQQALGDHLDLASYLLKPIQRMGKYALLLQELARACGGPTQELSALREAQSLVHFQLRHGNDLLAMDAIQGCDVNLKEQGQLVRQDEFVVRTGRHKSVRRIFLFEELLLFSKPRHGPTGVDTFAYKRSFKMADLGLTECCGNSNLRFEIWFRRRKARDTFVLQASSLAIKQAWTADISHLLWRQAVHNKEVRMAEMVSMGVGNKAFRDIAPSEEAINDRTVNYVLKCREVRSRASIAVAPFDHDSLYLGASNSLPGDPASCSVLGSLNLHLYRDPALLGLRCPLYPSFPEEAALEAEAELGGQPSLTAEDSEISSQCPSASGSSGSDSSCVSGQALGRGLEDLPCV

Experiments:
Assay in all cases: log2 fold change, soluble protein after heating vs DMSO (PISA); higher = thermal stabilisation; K562 lysate, 10 uM; active = over 0.2 and 3.5 SD of the protein, either way, in both replicates (recomputed)
dasatinib = compound: Cc1nc(Nc2ncc(C(=O)Nc3c(C)cccc3Cl)s2)cc(N2CCN(CCO)CC2)n1 [dasatinib]
How it was run: (§1)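 Thermal stability, expressed as log-two fold change relative to solvent controls, is given from duplicates. Crude K562 extract in PBS pH 7.4 with 1 mM MgCl2, at 1 mg/mL protein, was treated with 10 μM compound for 30 min and heated in aliquots for 3 min across 48°C-58°C. After pooling, adjustment to 0.5% NP-40 at 4°C and centrifugation at 21,000xg for 90 min, supernatant protein was measured by TMTpro 16plex LC-MS/MS with channel sums equalised.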

[1] = compound: Cn1cc(-c2ccc3c(c2)CCN3C(=O)Cc2cccc(C(F)(F)F)c2)c2c(N)ncnc21
How it was run: as §1

quisinostat = compound: Cn1cc(CNCC2CCN(c3ncc(C(=O)NO)cn3)CC2)c2ccccc21 [quisinostat]
How it was run: as §1

[2] = compound: NC(=O)Nc1cc(-c2cccc(F)c2)sc1C(=O)N[C@H]1CCCNC1
How it was run: as §1

[3] = compound: NC(=O)c1cnc(N[C@@H]2CCCC[C@@H]2N)nc1Nc1cccc(-n2nccn2)c1
How it was run: as §1

[4] = compound: NCC(=O)Nc1ccc(-n2nc(C(F)(F)F)cc2-c2ccc3c(ccc4ccccc43)c2)cc1
How it was run: as §1

[5] = compound: O=C1NC(=O)C(c2cnc3ccccn23)=C1c1cn2c3c(cc(F)cc13)CN(C(=O)N1CCCCC1)CC2
How it was run: as §1

entospletinib = compound: c1cn2cc(-c3ccc4cn[nH]c4c3)nc(Nc3ccc(N4CCOCC4)cc3)c2n1 [entospletinib]
How it was run: as §1

[6] = compound: NC1(c2ccc(-c3nc4ccn5c(=O)[nH]nc5c4cc3-c3ccccc3)cc2)CCC1
How it was run: as §1

vorinostat = compound: O=C(CCCCCCC(=O)Nc1ccccc1)NO [vorinostat]
How it was run: as §1

silmitasertib = compound: O=C(O)c1ccc2c(c1)nc(Nc1cccc(Cl)c1)c1ccncc12 [silmitasertib]
How it was run: as §1

nilotinib = compound: Cc1cn(-c2cc(NC(=O)c3ccc(C)c(Nc4nccc(-c5cccnc5)n4)c3)cc(C(F)(F)F)c2)cn1 [nilotinib]
How it was run: as §1

[7] = compound: Cc1nc(Nc2n[nH]c3c2CN(C(=O)N[C@H](CN(C)C)c2ccccc2)C3(C)C)c2sccc2n1
How it was run: as §1

[8] = compound: Cc1ncc(-c2ccnc(Nc3ccc(S(C)(=O)=O)cc3)n2)n1C(C)C
How it was run: as §1

tipifarnib = compound: Cn1cncc1[C@@](N)(c1ccc(Cl)cc1)c1ccc2c(c1)c(-c1cccc(Cl)c1)cc(=O)n2C [tipifarnib]
How it was run: as §1

Measured: log2 fold change

PLSCR3 (UniProt Q9NRY6)
inactive: dasatinib 0.163 | [1] 0.062 | quisinostat 0.014 | [2] -0.007 | [3] 0.04 | [4] 0.136 | [5] -0.145 | entospletinib -0.068

PNMT (UniProt P11086)
inactive: quisinostat -0.181 | [2] 0.085 | [3] -0.021 | [6] -0.062 | [4] 0.324 | vorinostat -0.121 | silmitasertib -0.053 | [5] 0.372

POF1B isoform 1 (UniProt Q8WVV4)
inactive: dasatinib -0.024 | [1] -0.265

PM20D2 (UniProt Q8IYS1)
inactive: [3] -0.026 | [4] -0.034 | entospletinib -0.391

POLK (UniProt Q9UBT6)
inactive: nilotinib -0.153 | [7] 0.009 | [8] 0.021 | tipifarnib -0.123 | [3] 0.101

PPIA isoform 2 (UniProt P62937)
inactive: nilotinib -0.088 | [7] 0.043 | [8] 0.033 | tipifarnib -0.139

PLEKHH2 (UniProt E5RGK1)
inactive: dasatinib 0.036 | [1] 0.033 | quisinostat -0.075 | [2] 0.022 | [3] 0.036 | [4] 0.089 | [5] -0.019 | entospletinib 0.256

PLTP (UniProt P55058)
inactive: nilotinib -0.067 | [7] -0.031 | dasatinib -0.004 | [8] 0.01 | [1] 0.087 | tipifarnib -0.078 | [6] 0.007 | [4] 0.093 | vorinostat 0.103 | silmitasertib -0.069

POM121 (UniProt Q96HA1)
inactive: dasatinib -0.077 | [1] -0.122 | quisinostat -0.153 | [2] -0.005 | [3] 0.039 | [6] 0.042 | [4] 0.18 | vorinostat 0.005 | silmitasertib -0.069 | [5] 0.015 | entospletinib 0.135

POLR2F (UniProt U3KPV3)
inactive: dasatinib -0.024 | [1] 0.038 | entospletinib -0.113

PPFIBP2 (UniProt Q8ND30)
inactive: entospletinib 0.201

POMT1 (UniProt Q9Y6A1)
inactive: dasatinib -0.097 | [1] 0.045 | [3] -0.037

POC1A (UniProt Q8NBT0)
inactive: nilotinib -0.216 | [7] 0.085 | [8] 0.046 | quisinostat 0.189 | tipifarnib 0.094 | [2] -0.007 | [3] 0.167 | [4] -0.163 | [5] -0.4 | entospletinib -0.142

POMK (UniProt Q9H5K3)
inactive: dasatinib -0.063 | [1] 0.037 | quisinostat 0.027 | [2] 0.036 | [6] 0.014 | [4] -0.067 | vorinostat 0.079 | silmitasertib 0.016 | [5] 0.02 | entospletinib -0.004

PML isoform 11 (UniProt P29590)
inactive: dasatinib -0.028 | [1] 0.085 | [4] 0.032 | entospletinib -0.003

PLXNA3 (UniProt P51805)
inactive: quisinostat -0.292 | [2] 0.131 | [3] 0.062 | [6] -0.079 | [4] 0.126 | vorinostat 0.009 | silmitasertib -0.088 | [5] 0.118 | entospletinib -0.068

PLOD2 isoform 2 (UniProt O00469)
inactive: dasatinib 0.301 | [1] -0.328 | [4] -0.103 | entospletinib -0.165

PNMA8A (UniProt Q86V59)
inactive: nilotinib -0.016 | [7] 0.173 | dasatinib -0.068 | [8] -0.006 | [1] -0.026 | tipifarnib -0.055 | [3] -0.124 | [6] -0.092 | vorinostat 0.026 | silmitasertib 0.021 | entospletinib -0.056

POLI (UniProt Q9UNA4)
inactive: nilotinib 0.04 | [7] -0.026 | [8] -0.209 | quisinostat -0.046 | tipifarnib 0.032 | [2] 0.172 | [5] -0.047

PLXND1 (UniProt Q9Y4D7)
inactive: nilotinib -0.006 | [7] 0.043 | dasatinib -0.045 | [8] 0.092 | [1] 0.013 | quisinostat -0.093 | tipifarnib 0.014 | [2] -0.047 | [6] 0.094 | vorinostat -0.132 | silmitasertib 0.174 | [5] 0.018

POLR2M (UniProt Q6EEV4)
inactive: dasatinib 0.02 | [1] -0.2 | quisinostat 0.011 | [2] 0.032 | [3] -0.015 | [6] 0.076 | [4] 0.146 | vorinostat -0.019 | silmitasertib -0.069 | [5] 0.06 | entospletinib -0.022

POSTN (UniProt Q15063)
inactive: quisinostat -0.219 | [2] 0.053 | [6] -0.009 | [4] -0.096 | vorinostat -0.156 | silmitasertib -0.05 | [5] 0.062 | entospletinib 0.008

PMM1 (UniProt Q92871)
inactive: nilotinib 0.029 | [7] 0.098 | dasatinib -0.027 | [8] -0.015 | [1] -0.011 | quisinostat -0.049 | tipifarnib 0 | [2] -0.018 | [6] -0.002 | [4] 0.072 | vorinostat -0.113 | silmitasertib 0.009 | [5] 0.037 | entospletinib 0.009

PLPPR3 isoform 3 (UniProt Q6T4P5)
inactive: dasatinib -0.165 | [1] -0.409

POM121C (UniProt A8CG34)
inactive: [3] 0.022 | [6] -0.09 | vorinostat 0.077 | silmitasertib -0.196

PLXNB1 (UniProt O43157)
inactive: nilotinib -0.001 | [7] -0.05 | dasatinib -0.152 | [8] 0.062 | [1] 0.223 | quisinostat 0.036 | tipifarnib 0.004 | [2] -0.079 | [6] -0.004 | vorinostat 0.048 | silmitasertib 0.004 | [5] -0.006

PPFIBP1 (UniProt Q86W92)
inactive: quisinostat 0.012 | [2] -0.003 | [5] 0.126 | entospletinib -0.019

PPHLN1 (UniProt Q8NEY8)
inactive: nilotinib 0.073 | [7] -0.057 | [8] 0.026 | quisinostat 0.067 | tipifarnib -0.052 | [2] -0.054 | [3] 0.028 | [6] -0.04 | [4] 0.039 | vorinostat -0.141 | silmitasertib -0.018 | [5] 0.053 | entospletinib -0.002

PLEKHM1 (UniProt Q9Y4G2)
inactive: quisinostat -0.059 | [2] 0.026 | [6] 0.094 | [4] -0.096 | vorinostat -0.104 | silmitasertib -0.096 | [5] 0.009 | entospletinib -0.125

POLR2K (UniProt P53803)
inactive: dasatinib -0.067 | [1] -0.137 | quisinostat 0.041 | [2] -0.034 | [4] -0.08 | [5] -0.193 | entospletinib 0.025

PLEKHJ1 (UniProt Q9NW61)
inactive: quisinostat -0.022 | [2] 0.054 | [6] 0.019 | vorinostat -0.188 | silmitasertib 0.025 | [5] 0.049

POC1B (UniProt Q8TC44)
inactive: dasatinib 0.026 | [1] 0.185 | [6] -0.167 | [4] 0.108 | vorinostat -0.081 | silmitasertib 0.009 | entospletinib 0.042

2 successive entries from above, quoted:
PLSCR3 (UniProt Q9NRY6)
inactive: dasatinib 0.163 | [1] 0.062 | quisinostat 0.014 | [2] -0.007 | [3] 0.04 | [4] 0.136 | [5] -0.145 | entospletinib -0.068

PNMT (UniProt P11086)
inactive: quisinostat -0.181 | [2] 0.085 | [3] -0.021 | [6] -0.062 | [4] 0.324 | vorinostat -0.121 | silmitasertib -0.053 | [5] 0.372

(listing goes on)

POLG2 (UniProt J3KRM2)
inactive: nilotinib 0.052 | [7] 0.04 | [8] -0.001 | tipifarnib -0.115 | [3] 0.096 | [6] -0.118 | vorinostat 0.25 | silmitasertib -0.171

PPARGC1B (UniProt Q86YN6)
inactive: [6] 0 | vorinostat -0.029 | silmitasertib -0.094

PPHLN1 isoform 3 (UniProt Q8NEY8)
inactive: [4] -0.271

PNPLA4 (UniProt P41247)
inactive: dasatinib 0.099 | [1] 0.194 | quisinostat 0.048 | [2] 0.037 | [4] -0.012 | [5] -0.093 | entospletinib -0.046

PLEKHG4 (UniProt Q58EX7)
inactive: nilotinib -0.037 | [7] 0.09 | dasatinib -0.003 | [8] 0.024 | [1] -0.011 | quisinostat -0.017 | tipifarnib 0.237 | [2] 0.096 | [4] -0.017 | [5] -0.018 | entospletinib -0.056
